Reference: article doi:10.1101/2021.03.08.433705
Results are given in words; binding and its absence hold for the method and conditions named. In cells and extracts the contact can be indirect. A result given as binding can be weak or reduced; the word gives no strength. Each block holds one molecule with its values, some of them ahead of it.

Key:
Assay in all cases: co-IP
[1] = molecular target: T1, KDM2B (endogenous) (human (endogenous in K562, MOLM14)) (UniProt Q8NHM5)
T1 sequence: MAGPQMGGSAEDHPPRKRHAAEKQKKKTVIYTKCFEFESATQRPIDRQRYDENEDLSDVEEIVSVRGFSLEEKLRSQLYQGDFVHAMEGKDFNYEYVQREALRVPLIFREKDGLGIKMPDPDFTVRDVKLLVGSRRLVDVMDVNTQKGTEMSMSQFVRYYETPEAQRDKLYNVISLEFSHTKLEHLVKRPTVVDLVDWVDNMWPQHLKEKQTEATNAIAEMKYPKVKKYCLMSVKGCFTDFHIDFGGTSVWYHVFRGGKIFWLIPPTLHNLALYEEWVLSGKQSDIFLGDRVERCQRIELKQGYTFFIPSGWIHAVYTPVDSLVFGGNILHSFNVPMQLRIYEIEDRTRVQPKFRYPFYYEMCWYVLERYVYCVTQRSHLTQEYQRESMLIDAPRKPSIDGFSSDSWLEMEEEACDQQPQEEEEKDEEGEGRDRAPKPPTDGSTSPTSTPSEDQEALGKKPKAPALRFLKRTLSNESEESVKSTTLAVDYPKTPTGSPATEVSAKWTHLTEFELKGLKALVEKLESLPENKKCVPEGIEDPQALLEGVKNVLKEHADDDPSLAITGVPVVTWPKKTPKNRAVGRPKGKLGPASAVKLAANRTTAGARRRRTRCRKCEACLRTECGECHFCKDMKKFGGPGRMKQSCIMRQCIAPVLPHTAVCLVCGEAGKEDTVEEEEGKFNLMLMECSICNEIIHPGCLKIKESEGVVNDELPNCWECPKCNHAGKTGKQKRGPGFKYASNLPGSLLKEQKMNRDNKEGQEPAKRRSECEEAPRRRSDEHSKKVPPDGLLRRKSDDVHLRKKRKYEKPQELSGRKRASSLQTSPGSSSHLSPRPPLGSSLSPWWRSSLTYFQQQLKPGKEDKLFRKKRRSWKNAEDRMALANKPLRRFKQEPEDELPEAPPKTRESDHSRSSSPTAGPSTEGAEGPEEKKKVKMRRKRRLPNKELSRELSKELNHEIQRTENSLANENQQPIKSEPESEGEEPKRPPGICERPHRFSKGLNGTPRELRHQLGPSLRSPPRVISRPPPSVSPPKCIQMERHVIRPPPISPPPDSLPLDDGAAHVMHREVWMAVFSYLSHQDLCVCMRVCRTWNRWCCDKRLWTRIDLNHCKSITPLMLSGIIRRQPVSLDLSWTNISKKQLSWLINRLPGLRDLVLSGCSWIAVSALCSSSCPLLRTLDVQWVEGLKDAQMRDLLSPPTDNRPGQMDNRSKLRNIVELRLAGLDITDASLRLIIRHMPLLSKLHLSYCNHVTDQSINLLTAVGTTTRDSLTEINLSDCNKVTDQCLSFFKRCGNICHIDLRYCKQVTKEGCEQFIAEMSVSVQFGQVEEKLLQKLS

[2] = molecular target: BCORL1 (endogenous, K562) (human (endogenous in K562))
[3] = molecular target: BCOR^PUFD-Tr (C-terminally truncated endogenous BCOR, K562) (human (endogenous in K562))
[4] = molecular target: BCOR^PUFD-Tr (C-terminally truncated endogenous BCOR, MOLM14 bulk population) (human (endogenous in MOLM14))

binding [1]: binds
Molecule: BCOR^PUFD-Tr (C-terminally truncated endogenous BCOR, K562) (human (endogenous in K562)) (domain or fragment)

binding [2]: binds
binding [3]: binds
binding [4]: binds
B1: KDM2B (endogenous) (protein, UniProt Q8NHM5 1-1336)
chain: T1 sequence

binding [2]: binds
B2: RYBP (endogenous) (protein, UniProt Q8N488 1-228)
chain: MTMGDKKSPTRPKRQAKPAADEGFWDCSVCTFRNSAEAFKCSICDVRKGTSTRKPRINSQLVAQQVAQQYATPPPPKKEKKEKVEKQDKEKPEKDKEISPSVTKKNTNKKTKPKSDILKDPPSEANSIQSANATTKTSETNHTSRPRLKNVDRSTAQQLAVTVGNVTVIITDFKEKTRSSSTSSSTVTSSAGSEQQNQSSSGSESTDKGSSRSSTPKGDMSAVNDESF
